Consider one compound from PubChem BioAssay AID1259400 (National Center for Advancing Translational Sciences (NCATS), 2018).

Chains of the proteins cited; added tags and fusions are not shown. Lines headed by an entry give the natural chain unless they say otherwise; changes in a name come on top.
UniProt Q9HBX9: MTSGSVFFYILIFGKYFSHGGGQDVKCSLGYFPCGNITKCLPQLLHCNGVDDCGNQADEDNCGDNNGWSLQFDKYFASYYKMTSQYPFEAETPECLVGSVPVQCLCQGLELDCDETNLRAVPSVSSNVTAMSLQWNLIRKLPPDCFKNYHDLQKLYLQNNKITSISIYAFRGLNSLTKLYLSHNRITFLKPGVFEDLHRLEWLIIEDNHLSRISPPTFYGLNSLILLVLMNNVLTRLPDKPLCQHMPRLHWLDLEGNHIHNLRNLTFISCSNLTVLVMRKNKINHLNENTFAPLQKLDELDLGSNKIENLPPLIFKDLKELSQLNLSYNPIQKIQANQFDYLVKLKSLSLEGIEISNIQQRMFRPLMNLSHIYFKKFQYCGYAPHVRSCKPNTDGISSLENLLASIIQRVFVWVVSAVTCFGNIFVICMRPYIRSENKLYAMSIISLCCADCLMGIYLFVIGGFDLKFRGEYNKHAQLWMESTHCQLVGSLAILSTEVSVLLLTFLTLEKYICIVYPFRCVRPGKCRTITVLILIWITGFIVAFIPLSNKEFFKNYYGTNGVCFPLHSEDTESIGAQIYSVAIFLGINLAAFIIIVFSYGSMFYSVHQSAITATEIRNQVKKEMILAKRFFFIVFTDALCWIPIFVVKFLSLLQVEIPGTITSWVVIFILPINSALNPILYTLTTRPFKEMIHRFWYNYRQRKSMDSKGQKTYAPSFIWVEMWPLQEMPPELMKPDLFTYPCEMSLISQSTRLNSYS

Most of the hits are listed elsewhere, so they are rarer here than in the full data.
% is scaled to controls: 0 for no effect and ±100 for the full control effect.

The target in this assay is Relaxin receptor 1 (Homo sapiens) (UniProt Q9HBX9). Briefly: qHTS Assay for Antagonists of the Relaxin Receptor RXFP1. To be noted: HEK293-RXFP1, relaxin-stimulated cAMP HTRF, 30 min; at 57.5 µM; stronger effect = lower value. From the text: The relaxin hormone is involved in the variety of biological functions in normal tissues and diseases. The role of relaxin is well-established in female reproduction and parturition, mammary gland and endometrial development, maintenance of myometrial quiescence during pregnancy. Relaxin signaling through its G protein-coupled receptor (GPCR) RXFP1 results in ECM remodeling through regulation of collagen deposition, cell invasiveness, proliferation and overall tissue homeostasis. […] Recombinant human relaxin (rhRlx) is currently being tested in clinical trials as a protective agent in congestive heart failure, in treating severe preeclampsia, and as an anti-fibrotic agent in various organs. […] Upon relaxin binding RXFP1 activation leads to the activation of adenylate cyclase (AC) via G?s. cAMP will activate PKA, which phosphorylates many signaling proteins. […] RXFP1 activation by relaxin in presence of various concentrations of tested compounds was assayed by changes in cAMP levels as detected with a time-resolved fluorescence energy transfer (TR-FRET) cAMP detection kit.
For the primary screening, we used HTRF(R) (Homogenous Time-Resolved Fluorescence) cAMP HiRange assay (Cisbio Bioassays, 62AM6PEJ). […] The EC50 values were determined from concentration-response data modeled with the standard Hill equation. […]
As to `Nc1ccc(N)c([N+](=O)[O-])c1`, the activity change, negative = inhibition is -147%.
